Laboratory results reported in patent publication US20250129170A1.
Positions count from the first letter of the chain named. These are yes or no findings as the source states them, for the method shown. Some binding calls cover weakened binding; strength is not graded here.

By UniProt entry, the sequences of proteins in these tests, tags left out. Where a name states a change or a piece, a line headed by the entry shows the natural chain unless it says otherwise. Residues count along the entry.
UniProt P32927, residues 17-443: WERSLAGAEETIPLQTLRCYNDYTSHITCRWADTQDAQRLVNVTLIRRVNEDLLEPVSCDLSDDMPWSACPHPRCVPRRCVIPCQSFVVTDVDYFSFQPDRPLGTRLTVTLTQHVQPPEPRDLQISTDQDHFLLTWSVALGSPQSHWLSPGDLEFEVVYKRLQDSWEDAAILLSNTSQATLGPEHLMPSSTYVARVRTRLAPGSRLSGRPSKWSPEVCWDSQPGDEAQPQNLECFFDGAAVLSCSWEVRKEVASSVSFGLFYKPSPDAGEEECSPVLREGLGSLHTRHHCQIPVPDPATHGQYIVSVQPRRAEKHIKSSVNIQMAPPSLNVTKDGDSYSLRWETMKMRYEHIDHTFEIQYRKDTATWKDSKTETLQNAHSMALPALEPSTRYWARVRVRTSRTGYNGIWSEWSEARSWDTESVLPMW
UniProt P19235, residues 25-250: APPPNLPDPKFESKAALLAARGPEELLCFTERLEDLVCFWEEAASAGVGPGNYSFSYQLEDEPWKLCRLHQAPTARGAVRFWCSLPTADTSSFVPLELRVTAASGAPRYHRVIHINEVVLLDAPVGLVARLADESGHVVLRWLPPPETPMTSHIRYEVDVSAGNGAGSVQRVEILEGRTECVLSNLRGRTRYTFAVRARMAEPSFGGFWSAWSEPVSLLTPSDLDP

Assays:
[1] = target: hCD131-Fc (IME021, inhouse) (human) (UniProt P32927); assay: B-cell sorting with labelled hCD131-Fc, then single-cell sequencing
[2] = target: hCD131-Fc (IME021, inhouse) (human) (UniProt P32927); assay: member of Table 6 (words from the table's title); B-cell sorting with labelled hCD131-Fc, then single-cell sequencing
[3] = target: hCD131-Fc (IME021, inhouse) (human) (UniProt P32927); assay: B-cell sorting, labelled hEPOR-Fc and hCD131-Fc
[4] = target: recombinant hEPOR-Fc (SinoBiological, Cat #10707-H02H) (human) (UniProt P19235); assay: B-cell sorting, labelled hEPOR-Fc and hCD131-Fc
[5] = target: recombinant hEPOR-Fc (SinoBiological, Cat #10707-H02H) (human) (UniProt P19235); assay: B cells sorted by flow cytometry on labeled hEPOR-Fc, single cell sequencing

B1: anti-CD131 antibody clonotype255 (Table 6) (antibody, V domains shown)
VH: EVRLVESGGGLVKPGGSLRLSCAASGFIFSSYSMTWVRQAPGKGLEWVSSISGSSSFVKYGDSVKGRFTISRDNAKNSLYLQMNSLRAEDTAVYYCAREGVLCSGGSCYREIFDYWGQVTLVTVSS
VL: SSELTQDPAVSVALGQTVRITCQGDSLRSYYASWYQQKPGQAPVLVIYGKNNRPSGIPDRFSGSSSGNTASLTITGAQAEDEADYYCNSRDSSGNHLVFGGGTKLTVL
Q: Which results are given for B1?
A: binding [1]: binds; binding [2]: binds

B2: anti-CD131 antibody clonotype261 (Table 6) (antibody, V domains shown)
VH: EVQLVESGEGLVKPGGSLRLSCVASGFDFTNAWMSWVRQAPGRGLEWVGRIKSKTDGGSIDYAAPVKGRFTISRDDSKTTLYLQMTSLRTEDTAVYYCSTSPYYDFWSGYYGYIDYWGQGTLVTVSS
VL: QSVLTQPPSVSGAPGQRVTISCTGSSSNIGAGYAVHWYQQFPGIAPKLLIYGNINRPSGVPDRFSGSKSDTSASLAITGLQAEDEADYYCQSFDSSLSGVMFGGGTKLTVL
Q: How did the binding [1] turn out when B2 was run?
A: Its binding is “binds”.

Q: What about the binding [2] of the same binder?
A: Its binding is “binds”.

B3: anti-CD131 antibody clonotype263 (Table 6) (antibody, V domains shown)
VH: QLQLQESGPGLVKPSETLSLTCTVSGGSISSSSYYWGWIRQPPGKGLEWIGSIYYSGSTYYNPSLKSRVTISVDTSKNQFSLKLSSVTAADTAVYYCARHAAAGGWFDPWGQGTLVTVSS
VL: QAVLTQPASLSASPGASASLTCTLRSGINVGTYRIYWYQQKPGSPPQYLLRYKSDSDKQQGSGVPSRFSGSKDASANAGILLISGLQSEDEADYYCMIWHSSAVVFGGGTKLTVL
Q: For B3, which binding [1] is on record?
A: The binding was “binds”.

Q: What about the binding [2] of the same binder?
A: The binding was “binds”.

B4: anti-CD131 antibody clonotype272 (Table 6) (antibody, V domains shown)
VH: QVQLVQSGAEVKKPGASVKVSCKASGYTFTSYDINWVRQATGQGLEWMGWLNPKNGYTGYSHKFQGRVTMTRNTSISTAYMELSSLRSEDAAVYFCARRGDFWSGYYSTSQNIVIHWFDSWGLGTLVTVSS
VL: B2 VL with A34D, F41L, I44T, I54S, D70G, F93Y, V100S, M101V
Q: What does the source list for B4?
A: binding [1]: binds; binding [2]: binds

B5: clonotype241 (EPOR/CD131 binder, Table 8) (antibody, V domains shown)
VH: QVQLVQSGAEVKKPGASVKVSCKASGYTFTSYYIHWVRQAPGQGLEWMGIINPSGGTTNYAQKFQGRVTMTRDTSTSTVYMELSSLRSEDTAVYYCARGDWGTMDVWGKGTTVTVSS
VL: QSALTQPASVSGSPGQSITISCTGTSSDVGNYNYVSWYQQHPGKVPKLMIYEVIYRPSGVSNRFSGSKSGNTASLTISGLQAEDEADYYCTSYTRNNTYVFGSGTKVTVL
Q: For B5, which binding [3] is on record?
A: Its binding is “binds”.

Q: And the binding [4]?
A: Its binding is “binds”.

B6: clonotype242 (EPOR/CD131 binder, Table 8) (antibody, V domains shown)
VH: EVQLVESGGGLVQPGGSLRLSCAASGFTFSSYWMSWVRQAPGKGLEWVANIKQDGSEKYYVDSVKGRFTISRDNAKNSLYLQMNSLRAEDTAVYYCARDGTGWFDPWGQGTLVTVSS
VL: B2 VL with A34D, F41L, I44T, I54S, D70G, F93Y, V100W, M101V
Q: Which binding [3] does the source give for B6 here?
A: Its binding is “binds”.

Q: And the binding [4]?
A: Its binding is “binds”.

B7: clonotype243 (EPOR/CD131 binder, Table 8) (antibody, V domains shown)
VH: QVQLVQSGAEVKKPGASVKVSCKASGYTFTSYGISWVRQAPGQGLEWMGWISAYNGNTNYAQKLQGRVTMTTDTSTSTAYMELRSLRSDDTAVYYCARRGTVVFDYWGQGTLVTVSS
VL: QSALTQPASVSGSPGQSITISCTGTSSDVGGYNYVSWYQQHPGKAPKLMIYDVSKRPSGVSNRFSGSKSGNTASLTISGLQAEDEADYYCCSYAGSSTYVVFGGGTKLTVL
Q: Which results are given for B7?
A: binding [3]: binds; binding [4]: binds

B8: clonotype244 (EPOR/CD131 binder, Table 8) (antibody, V domains shown)
VH: B7 VH with S31N, K63N, R99P, G100L, T101S, V102G, V103T, F104L, Y106N
VL: QSALTQPASVSGSPGQSITISCTGTSSDVGGYNYVSWYQQHPGKAPKLMIYDVSKRPSGVSNRFSGSKSGNTASLTISGLQAEDEADYYCCSYAGRSTLGIDWVFGGGTKLTVR
Q: What does the source list for B8?
A: binding [3]: binds; binding [4]: binds

B9: clonotype249 (EPOR/CD131 binder, Table 8) (antibody, V domains shown)
VH: QVQLVQSGAEVEKPGASVKVSCKASGYTFTSYDIYWVRQATGQGLEWMGWMIPNSGNTGYAQRFEDRVTMTRSTSMNTAYMELNSLRSEDTAVYYCARGDWAWSFDLWGRGTLVTVSS
VL: QSALTQPASVSGSPGQSITISCTGTSSDVGGYNYVSWYQQHPGKAPKLMIYEVSHRPSGVSNRFSGSKSGNTASLTISGLQAEDESDYYCSSYTSSSSLVFGGGTKLTVL
Q: Which binding [3] does the source give for B9 here?
A: The binding was “binds”.

Q: And the binding [4]?
A: Its binding is “binds”.

B10: clonotype250 (EPOR/CD131 binder, Table 8) (antibody, V domains shown)
VH: QVQLVQSGAEVKKPGASVKVSCKASGYTFTSYYMHWVRQAPGQGLEWMGIINPSGGSTSYAQKFQGRVTMTRDTSTSTVYMELSSLRSEDTAVYYCARGLRRDWFDPWGQGTLVTVSS
VL: B9 VL with H55N, S86A, S98T, L99W
Q: Which results are given for B10?
A: binding [3]: binds; binding [4]: binds

B11: clonotype252 (EPOR/CD131 binder, Table 8) (antibody, V domains shown)
VH: QVQLVESGGGVVQPGRSLRLSCAASGFTFSNYGMHWVRQAPGKGLDWVAVIWYDGNNEYYADSVKDRFTISRDNSQNTLYLQMNSLRAEDRAVYYCVRGGVGDGFDMWGQGTMVTVSS
VL: B9 VL with A45V, H55N, S86A, S91I, S95N, S96T, S97N, S98T, L99R
Q: B11 was tested. Which binding [3] did it give?
A: Its binding is “binds”.

Q: And the binding [4]?
A: Its binding is “binds”.

B12: clonotype254 (EPOR/CD131 binder, Table 8) (antibody, V domains shown)
VH: EVQLVESGGGVVRPGGSLRLSCAASGFTFDDYGMSWVRQAPGKGLEWVSGINWNGGSTGYADSVKGRFTISRDNAKNSLYLQMNSLRAEDTALYYCARKGNWNSFDYWGQGTLVTVSS
VL: QSALTQPPSASGSPGQSVTISCTGTSSDVGGYNYVSWYQQHPGKAPKLMIYEVSKRPSGVPDRFSGSKSGNTASLTVSGLQAEDEADYYCSSYAGSNNWVFGGGTKLTVL
Q: Which binding [4] does the source give for B12 here?
A: Its binding is “binds”.

B13: clonotype255 (EPOR/CD131 binder, Table 8) (antibody, V domains shown)
VH: EVQLVESGGGLVKPGGSLRLSCAASGFTFSSYSMNWVRQAPGKGLEWVSSISSSSSYIYYADSVKGRFTISRDNAKNSLYLQMNSLRAEDTAVYYCARDSAYYTFDYWGQGTLVTVSS
VL: QSALTQPPSASGSPGQSVTISCTGTSSDVGGYNYVSWYQQHPGKAPKLMIYEVSKRPSGVPDRFSGSKSGNTASLTVSGLQAEDEADYYCSSYAGSNNFWVFGGGTKLTVL
Q: For B13, which binding [3] is on record?
A: Its binding is “binds”.

Q: What about the binding [4] of the same binder?
A: The binding was “binds”.

B14: anti-EPOR antibody clonotype431 (antibody, V domains shown)
VH: EVQLVESGGGLVKPGGSLRLSCAASGFTFSSYSMNWVRQAPGKGLEWVSSISSSSSYIYYADSVKGRFTISRDNAKNSLYLQMNSLRAEDTAVYYCARDLISSFDYWGQGTLVTVSS
VL: B1 VL with S26R, Y86H
Q: B14 was tested. Which binding [5] did it give?
A: Its binding is “binds”.

B15: anti-EPOR antibody clonotype432 (antibody, V domains shown)
VH: B6 VH with D99R, G100I, T101V, W103A, P106Y
VL: B1 VL
Q: For B15, which binding [5] is on record?
A: The binding was “binds”.

B16: anti-EPOR antibody clonotype436 (antibody, V domains shown)
VH: EVQLVESGGGLIQPGGSLRLSCAASGLTVSTNYMSWVRQAPGKGLEWVSVLYSGGGTYYADSVKGRFTISRDNSKNTLCLQMNSLRAEDTAMYYCARDNWDSYFDYWGQGTLVTVSS
VL: QTVVTQEPSLTVSPGGTVTLTCASSTGAVTSGYYPNWFQQKPGQAPRALIYSTSNKHSWTPARFSGSLLGGKAALTLSGVQPEDEAEYYCLLYYGGARVFGGGTKLTVL
Q: How did the binding [5] turn out when B16 was run?
A: Its binding is “binds”.

B17: anti-EPOR antibody clonotype445 (antibody, V domains shown)
VH: B13 VH with S100R, A101G, Y102A, Y103T, T104G
VL: B1 VL with L97W
Q: For B17, which binding [5] is on record?
A: Its binding is “binds”.
